The assay can be described thus: qHTS Assay for Lipid Storage Modulators in Drosophila S3 Cells.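 As to cell number change: cells counted by Cell Tracker Red CMTPX staining in the red channel.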 As to conditions: BODIPY lipid droplet fluorescence, 18-24 h; for cell number change: measured here: cell count max response, cells fed with added oleic acid. The essentials: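 Drosophila S3 cells loaded with oleic acid (400 uM, as added) and compounds at several concentrations; lipid droplets imaged by 488-nm laser-scanning cytometry, 500–530 nm intensity and object ratio to cell channel. Percent activity normalized to 20 uM Triacsin C.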

The mark [1] stands for this setting: measured here: lipid fluorescence (Fed channel) AC50, cells fed with added oleic acid.
[2] abbreviates: measured here: cell number channel AC50, cells fed with added oleic acid.

This is one part of the list. Further columns of the screen follow, without active or inactive calls. The list favours compounds with an active or inconclusive main result. Potencies come from curve fits of mixed quality, noted in brackets.

On to `CCSC(=S)Nc1c(C)n(C)n(-c2ccccc2)c1=O`, for which the cell number change was -26.7%. Moreover, the AC50 under setting [1] was 23.1 µM [falling, single point].

Turning to `N#C/C(=C/c1ccc(N2CCOCC2)o1)c1nc2ccccc2[nH]1`, the cell number change was -101%. Further, under setting [2], the AC50 was 20.6 µM [falling, single point]. Moreover, the AC50 under setting [1] is 16.4 µM [falling, partial curve].

As to `CCc1ccc2nc(N3CCN(C(=O)C(C)(C)C)CC3)sc2c1`, the cell number change was -14.4%.

In the case of `CCn1nnnc1SCC(=O)N1N=C(c2cccs2)CC1c1cccs1` (centres undefined), the cell number change was -25%. The AC50 under setting [1] is 6.51 µM [falling, single point].

Consider `COC(=O)c1c(NC(=O)CN2C(=O)NC3(CCc4ccccc4C3)C2=O)sc2c1CCCCC2` (centres undefined), for which the cell number change was 29.7%. For the same compound, the half-maximal activity concentration (AC50) under setting [1] was 5.8 µM [rising, partial curve].

Turning to `NNC(=O)c1ccc2ccccc2n1`, the cell number change is -14.5%.

With `COc1ccc(CNC(=O)CNC(=O)[C@@H]2Cc3ccccc3CN2)cc1`, the cell number change came to 2.83%.

In the case of `CCCCCC1CC(CC(=O)Nc2ccc([N+](=O)[O-])cc2)C(=O)O1` (centres undefined), the cell number change was -33.2%. The AC50 under setting [2] is 23.1 µM [falling, single point]. Moreover, under setting [1], the AC50 was 18.4 µM [falling, partial curve].

In the case of `CC(c1ccccc1)C1CC(=O)N(c2ccc(C(=O)O)cc2)C1=O` (centres undefined), the cell number change was -3.7%.

Consider `CCOc1ccc2c(c1)c1nnc(SCC(=O)NC3CC3)nc1n2C`, for which the cell number change was 30.9%.

Turning to `C/C(=N\NC(=O)Cc1ccc([N+](=O)[O-])cc1)c1cccnc1`, the cell number change is 7.43%. Moreover, under setting [2], the AC50 was 2.59 µM [rising, partial curve, poor fit].

For `CC(NC(=O)c1ccccc1Cl)C(=O)N1CCN(Cc2ccc3c(c2)OCO3)CC1` (centres undefined), the cell number change was -19.9%. Under setting [1], the AC50 is 10.3 µM [falling, single point].

As for `COc1ccc(C(C(=O)NCc2ccccc2)N(Cc2ccco2)C(=O)c2snc(C(N)=O)c2N)cc1OC` (centres undefined), the cell number change is -10.7%. For the same compound, under setting [1], the AC50 was 3.66 µM [falling, partial curve].

For `COc1ccc(NC(=O)CN2CCC(C(=O)c3ccc(C)cc3)CC2)c(OC)c1`, the cell number change turned out to be 13.9%. For the same compound, the AC50 under setting [1] is 29.1 µM [rising, single point].

With `O=C(CCC(=O)N1CCN(c2ccccc2F)CC1)N1CCN(c2ccc(F)cc2)CC1`, the cell number change amounted to 0.275%. For the same compound, the AC50 under setting [1] is 29.1 µM [rising, single point].

Consider `COc1ccc(SCCN2CC[C@@H](O)CCC2=O)cc1`, for which the cell number change amounted to 1.81%. For the same compound, under setting [1], the AC50 was 29.1 µM [rising, single point].

In the case of `CCOC(=O)Cc1csc(NC(=O)c2sc3nc4cc(C)ccc4cc3c2N)n1`, the cell number change was -28.4%. Moreover, the AC50 under setting [1] was 23.1 µM [falling, partial curve].

For `Cc1ccc(N(C)S(=O)(=O)c2ccc(-c3cc(C)no3)s2)cc1`, the cell number change was determined as 18.2%. The half-maximal activity concentration (AC50) under setting [1] is 2.31 µM [rising, single point].

For `O=C1OC(N2CCN(c3ccccn3)CC2)c2ccccc21` (centres undefined), the cell number change is -89.8%. In addition, the AC50 under setting [2] was 29.1 µM [falling, single point]. Moreover, the AC50 under setting [1] was 29.1 µM [falling, single point].

In the case of `COCCCNC(=O)C1CCC(CNS(=O)(=O)c2ccc(Cl)cc2)CC1` (centres undefined), the cell number change was -56.6%. The concentration at half-maximal activity (AC50) under setting [2] was 29.1 µM [falling, single point].

`Cc1ccc(S(=O)(=O)N(CC(=O)NCc2ccco2)Cc2ccccc2F)cc1`: the AC50 is 6.51 µM [rising, single point] under setting [2] and 0.0058 µM [falling, full curve, poor fit] under setting [1].

In the case of `C=CCSC1=C(C#N)C(c2ccccc2OC)CC(=O)N1` (centres undefined), the cell number change is -11.5%. Also, the AC50 under setting [1] is 2.06 µM [rising, full curve, poor fit].

`Clc1ncnc2scc(C3COc4ccccc4O3)c12` (centres undefined): the cell number change is -44.7%. For the same compound, the AC50 under setting [2] is 23.1 µM [falling, partial curve]. The AC50 under setting [1] is 25.9 µM [falling, partial curve].

Consider `COCc1nnc(NC(=O)c2ccc(S(=O)(=O)N3CCCC3)cc2)o1`, for which the cell number change is -35.6%. Also, the AC50 under setting [2] was 35.5 µM [falling, single point].

Turning to `CCOc1ccc(C(C)=O)cc1COC(=O)C1=COCCO1`, the cell number change was -30.5%. In addition, the AC50 under setting [2] is 2.91 µM [falling, full curve, poor fit].

As to `CCOc1nc(-c2ccc(Cl)cc2Cl)ccc1C#N`, the AC50 reads like this: under setting [2], 2.59 µM [rising, partial curve]; under setting [1], 0.82 µM [rising, single point].

In the case of `OC(COc1ccccc1)CN1CCCCCC1` (centres undefined), the cell number change was determined as 5.63%. Further, the AC50 under setting [2] was 1.46 µM [rising, partial curve, poor fit].

As for `CCOC(=O)CCc1c(C)c2ccc(OCc3ccc([N+](=O)[O-])cc3)cc2oc1=O`, the cell number change turned out to be 0.417%. Also, the AC50 under setting [2] is 0.231 µM [falling, full curve]. Also, under setting [1], the half-maximal activity concentration (AC50) is 1.84 µM [falling, partial curve].

As for `Cc1ccc(OCC(=O)Nc2cc(S(=O)(=O)N3CCOCC3)ccc2Cl)c([N+](=O)[O-])n1`, the cell number change was -17%. For the same compound, the AC50 under setting [1] was 1.03 µM [falling, full curve, poor fit].

Take `COc1ccc(C(=O)COC(=O)C2CCC(=O)N2)cc1` (centres undefined): the cell number change amounted to 4.96%. Under setting [2], the AC50 was 2.31 µM [falling, single point]. Further, the half-maximal activity concentration (AC50) under setting [1] is 3.66 µM [falling, single point].

For the compound `CCOc1ccc(CN(Cc2ccco2)C(c2cccs2)c2nnnn2C(C)(C)C)cc1` (centres undefined), the cell number change is -13.4%.

For the compound `CCOc1cc(C(=O)NCc2nnc(SCC(=O)OC)n2C)cc(OCC)c1OCC`, the cell number change is -33.1%. For the same compound, the half-maximal activity concentration (AC50) under setting [2] was 32.6 µM [falling, single point]. Besides, under setting [1], the AC50 is 29.1 µM [falling, single point].

As to `O=C(NCC1COc2ccccc2O1)c1cccc(S(=O)(=O)N2CCCCC2)c1` (centres undefined), the AC50 under setting [1] is 16.4 µM [falling, single point].

Take `COCCOC(=O)c1c(C)nc(SCC(=O)Nc2cccc3ccccc23)c(C#N)c1-c1ccco1`: the cell number change was 26.3%. The AC50 under setting [2] is 2.59 µM [rising, full curve, poor fit]. In addition, under setting [1], the AC50 is 3.26 µM [rising, partial curve].

As to `COc1ccc(CCNC(=O)C(C)OC(=O)c2ccco2)cc1OC` (centres undefined), under setting [1], the concentration at half-maximal activity (AC50) is 2.06 µM [falling, full curve].

In the case of `COCCn1c(SCC(=O)Nc2ccccc2C(F)(F)F)nc2ccccc2c1=O`, the cell number change came out at 18.8%. Under setting [1], the AC50 is 29.1 µM [rising, single point].

With `CC(c1ccccc1)n1cc(C(=O)NCc2ccncc2)nn1` (centres undefined), the cell number change turned out to be 5.25%. Moreover, the AC50 under setting [1] is 1.03 µM [falling, partial curve].

These data come from PubChem BioAssay AID2685 (National Center for Advancing Translational Sciences (NCATS), 2010).
